Measured values taken from PubChem BioAssay AID624297 (National Center for Advancing Translational Sciences (NCATS), 2012).
Values joined by “and” are separate entries in the source; they are usually repeats but may differ in a detail not shown here. Equal values may be shown once. The campaign covered roughly 340,000 compounds. About 6,200 (1.8%) were called active. This list was built around the results that the source calls inconclusive (neither active nor inactive); the mix of calls is not that of the screen. Calls follow the shape of the dose curve; as a rule, active = well fitted activation curve with a large enough effect; inconclusive = small, poorly fitted or top-dose-only effect; inactive = no such curve, though single readings can be large or run the other way. Where the call is inconclusive, the potency comes from a doubtful curve fit.

Assay: A quantitative high throughput screen for small molecules that induce DNA re-replication in SW480 colon adenocarcinoma cells. Also: nearly all actives have a fitted effect of over 55% in size.
Details: Hoechst DNA content imaging, 48 h; series mostly up to 46.1 µM
Method in brief: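 250 cells/well; 23 nL cpd via pin tool; 48 hr, 37 C, 5% CO2; Hoechst 40 min; imager read of total nuclear intensity, ex 405/em 500-530 nm.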
Potency is read from the fitted curve at half-maximal effect.

SMILES	Potency
O=C(N/N=C/C(Cl)=C/c1ccc([N+](=O)[O-])cc1)C(=O)Nc1ccc(C(=O)O)cc1	inconclusive: 18.4 µM [activator, single point]
N#Cc1ccccc1NC(=O)c1ccccc1OCC(=O)Nc1ccc2c(c1)oc1ccccc12	inactive
S=C(Nc1ccccc1)Nc1ccc(OCc2ccc(Cl)cc2Cl)cc1	inconclusive: 16.4 µM [activator, single point]
C=CCOc1cccc(C2/C(=C(/O)c3ccc4c(c3)CC(C)O4)C(=O)C(=O)N2CCN2CCOCC2)c1 (stereo not drawn)	inconclusive: 2.31 µM [activator, single point]
CC1(c2ccc3c(c2)OCCO3)NC(=O)N(CC(=O)Nc2ccccc2)C1=O (stereo not drawn)	inconclusive: 6.51 µM [activator, single point]
O=C(O)c1ccc(N=Nc2c(-c3ccccc3)[nH]oc2=O)cc1	inactive
CC(C)Oc1ccc(C(=O)Nc2cc(S(=O)(=O)N3CCOCC3)ccc2N2CCOCC2)cc1	inconclusive: 18.4 µM [activator, single point]
CC(C)CN1CCNC(=O)C1CC(=O)NCc1cnn(-c2cccc(F)c2)c1 (stereo not drawn)	inactive
CC(=O)c1ccccc1OCC(O)CN1CCN(c2ccccn2)CC1 (stereo not drawn)	inconclusive: 35.5 µM [activator, single point]
CCOC(=O)C1=C(C)N=c2s/c(=C/c3ccc(OCC(=O)O)cc3)c(=O)n2C1c1cc(OC)c(OC)c(OC)c1 (stereo not drawn)	inactive
Nc1ncnc(Sc2ncccn2)c1[N+](=O)[O-]	inconclusive: 4.11 µM [activator, single point]
COc1ccc(CN(CCCN2CCOCC2)S(=O)(=O)N(C)C)cc1OC	inactive
O=C(COc1ccc(C(=O)Nc2ccc(Cl)cc2)cc1)NCc1ccccc1	inconclusive: 23.1 µM [activator, single point]
C=CCc1cccc(CNc2nc3ccccc3n2CCC)c1O	inconclusive: 29.1 µM [activator, single point]
NNC(=O)Nc1cccc(C(F)(F)F)c1	inactive
O=C(Cn1cnc(Cl)c1Cl)c1ccccc1	inconclusive: 18.4 µM [activator, partial curve, poor fit]
Cc1cc(Br)ccc1OCCCCN1CCC(C)CC1	inconclusive: 29.1 µM [activator, single point]
CCN1C(=O)CSc2ccc(C(=O)NC3CCCCC3)cc21	inactive
Cc1cc(C(=O)OCC(=O)NCc2ccco2)c(C)n1-c1ccccc1	active: 7.31 µM
CSc1ccc(/C=C(\C#N)C(=O)NC2CCCCC2C)cc1 (stereo not drawn)	inconclusive: 16.4 µM [activator, single point]
CCCCc1nnc(NC(=O)CCS(=O)(=O)c2ccc(Cl)cc2)s1	inconclusive: 29.1 µM [activator, single point]
CCCCN(C(=O)COC(=O)COc1c(C)cc(C)cc1C)c1c(N)n(CCC)c(=O)[nH]c1=O	inactive
CC(=O)NCc1ccc(-c2csc(-c3cccs3)n2)cc1	inconclusive: 29.1 µM [activator, single point]

SMILES	Potency
O=C(NCCOc1ccccc1)C(=O)NCC1CCCO1 (stereo not drawn)	inactive
Cc1cn([C@H]2C[C@H](O)[C@@H](CCC(=O)NCCN3CCCCC3)O2)c(=O)[nH]c1=O	inactive
Cc1cc(/C=C2\SC(=S)N(C)C2=O)c(C)n1-c1ccccc1O	active: 11.6 µM
CCn1c(=O)c2cc(C(=O)NCCCOC)sc2c2ccccc21	inconclusive: 25.9 µM [activator, single point]
CC1CCN(c2ccc(NC(=S)NC(=O)c3ccc(-c4cccc([N+](=O)[O-])c4)o3)cc2)CC1	inconclusive: 8.91 µM [activator, partial curve]
CC(c1ccccc1)N1CCN(C(=O)CCl)CC1 (stereo not drawn)	inconclusive: 7.31 µM [activator, single point]
Cc1ccccc1CC1(CO)CCCN(C(=O)Cc2c(F)ccc(F)c2F)C1 (stereo not drawn)	inconclusive: 1.46 µM [activator, full curve, poor fit]
CCOc1ccccc1NC(=O)CN(c1ccc(C)cc1)S(=O)(=O)c1c(C)noc1C	inconclusive: 29.1 µM [activator, single point]
CCOc1ccc(C2=Nn3c(nnc3-c3ccc(OC)cc3)SC2)cc1	active: 5.8 µM
CCOc1ccc(CCNS(=O)(=O)c2c(C)nc3scc(C)n3c2=O)cc1OCC	inconclusive: 6.31 µM [activator, partial curve, poor fit]
CCCCc1ccc(-n2nnnc2SCC(=O)Nc2cc(OC)c([N+](=O)[O-])cc2C)cc1	inconclusive: 23.1 µM [activator, partial curve, poor fit]
COC(=O)C1=C(C)NC(C)=C(C(=O)OCC(C)C)C1c1ccccc1[N+](=O)[O-] (stereo not drawn)	inconclusive: 29.9 µM [activator, single point] and inconclusive: 18.4 µM [activator, single point]
Fc1ccc(NCc2ccccc2F)cc1Cl	inconclusive: 29.1 µM [activator, single point]
O=C(Nc1cccnc1)c1ccc(Oc2ccccc2)cc1	inconclusive: 29.1 µM [activator, single point]
Cc1ccc2nc(-c3ccncc3)cc(C(=O)Nc3ccc(OC(F)F)cc3)c2c1	inconclusive: 6.51 µM [activator, full curve]
COC(=O)c1ccccc1N=Nc1c(N)n[nH]c1N	inactive
CC(C)(C)c1ccc(Cn2c(=O)cnc3ccccc32)cc1	inconclusive: 29.1 µM [activator, single point]
O=S(=O)(NC1CCc2ccccc21)c1ccc(S(=O)(=O)N2CCCC2)cc1 (stereo not drawn)	inconclusive: 23.1 µM [activator, single point]
COc1ccc(NC(=O)c2c(NC(=O)CNCc3ccco3)sc3c2CCC3)c(OC)c1	inconclusive: 16.4 µM [activator, partial curve, poor fit]
CCOC(=O)C1=c2s/c(=C\c3ccncc3)c(=O)n2C(N)=C(C(=O)OC)C1c1ccncc1 (stereo not drawn)	inactive
CC(C)N(C(=O)[C@H]1C[C@H](CC(=O)NCc2ccco2)C(=O)N2CCc3c([nH]c4cc(-c5ccco5)ccc34)[C@]12C)C(C)C	inconclusive: 9.2 µM [activator, partial curve]
O=C1C(Br)=C(c2ccccc2)C(c2ccccc2)=C1c1ccccc1	active: 2.91 µM
COC(=O)C(NNc1ccc(F)cc1)(NC(=O)c1ccccc1)C(F)(F)F (stereo not drawn)	inactive

Quoted from the listing.
Potency, CC1CCN(c2ccc(NC(=S)NC(=O)c3ccc(-c4cccc([N+](=O)[O-])c4)o3)cc2)CC1 is entered as inconclusive: 8.91 µM [activator, partial curve]
Potency, CC(C)N(C(=O)[C@H]1C[C@H](CC(=O)NCc2ccco2)C(=O)N2CCc3c([nH]c4cc(-c5ccco5)ccc34)[C@]12C)C(C)C is entered as inconclusive: 9.2 µM [activator, partial curve]

The results go on.

SMILES	Potency
CN(C)C(=O)CCc1ccc2c3c([nH]c2c1)[C@]1(C)[C@@H](C(=O)N2CCOCC2)C[C@H](CC(=O)NCCC2=CCCCC2)C(=O)N1CC3	inconclusive: 25.9 µM [activator, single point]
COc1ccc(CNCC(O)(c2ccc(F)cc2)c2ccc(F)cc2)cc1	inconclusive: 20.6 µM [activator, single point]
O=c1c(Cc2ccccc2)c(O)ccn1C1CCCCCCC1	inactive
Cc1ccc(C2=NOC(=O)/C2=C\c2ccc(C)o2)cc1	inconclusive: 0.731 µM [activator, full curve, poor fit]
CC(=O)N1CCN(c2ccc([N+](=O)[O-])c(-n3nc(C)cc3C)c2)CC1	inactive
Cc1ccc(SCC(=O)Nc2ccccc2N2CCOCC2)cc1	inactive
CCCCc1ccc(Nc2nc(N3CCOCC3)nc(N3CCOCC3)n2)cc1	inconclusive: 20.6 µM [activator, single point]
Cc1ccccc1-n1c(CSC(=N)N)nc2ccccc2c1=O	inconclusive: 29.1 µM [activator, partial curve, poor fit]
CC(C)[C@@H](CO)NC(=O)c1ccc2c3n(nc2c1)-c1ccc(Cl)cc1CO3	inactive
C/C(=N/NC(=O)c1ccc(C)s1)c1ccncc1	inconclusive: 0.146 µM [activator, full curve, poor fit]
O=C(NCCCN1CCOCC1)c1ccc2c(=O)n(Cc3cccc(Br)c3)c(=S)[nH]c2c1	inconclusive: 29.1 µM [activator, single point]
COc1ccccc1CNc1ncnc2sccc12	inactive
CCc1ccc(-c2cc3c(=O)n(CC(=O)NCCCN4CCN(C)CC4)ncn3n2)cc1	inconclusive: 25.9 µM [activator, single point]
O=C1N=c2ccc([N+](=O)[O-])cc2=C1c1sc(=O)[nH]c1O	inconclusive: 20.6 µM [activator, single point]
O=C(Nc1cc(C(F)(F)F)ccc1-n1cncn1)c1ccc([N+](=O)[O-])o1	active: 9.2 µM
O=C(O)CSc1nnc(-c2ccc(Cl)cc2Cl)n1Cc1ccccc1	inactive
O=C(COc1ccc(Cl)cc1)Nc1ccc(Cc2ccncc2)cc1	inactive
O=C(CN1C(=O)/C(=C/c2ccc(F)cc2)SC1=S)N1CCN(CCc2ccccn2)CC1	inconclusive: 16.4 µM [activator, single point]
COc1ccc(C(=O)c2sc3nc(C)cc(-c4cccs4)c3c2N)cc1OC	inconclusive: 20.6 µM [activator, single point]
CC(C)[C@H](NC(=O)[C@@H]1Cc2ccccc2CN1)C(=O)NC1CCCCC1	inconclusive: 29.1 µM [activator, single point]
CCc1ccc2[nH]c(=O)c(CN(Cc3ccccc3)Cc3nnnn3Cc3ccco3)cc2c1	inconclusive: 25.9 µM [activator, partial curve, poor fit]
Cc1ccc(S(=O)(=O)Nc2cc(C)cn(Cc3ccccc3)c2=O)cc1	inconclusive: 14.6 µM [activator, partial curve, poor fit]

Ordered by SMILES length (rising): three of the compounds above
SMILES	Potency
NNC(=O)Nc1cccc(C(F)(F)F)c1	inactive
COc1ccc(CN(CCCN2CCOCC2)S(=O)(=O)N(C)C)cc1OC	inactive
O=C1N=c2ccc([N+](=O)[O-])cc2=C1c1sc(=O)[nH]c1O	inconclusive: 20.6 µM [activator, single point]
